PubChem BioAssay AID602196 – INSERM – 2012

Screen: 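Knock-downs that protect lung cancer cells from cisplatin or sensitise them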
Cell system: human A549 lung cancer cells
Knock-down reagent: siRNA pair against human genes
Time to read-out: 48 h transfection before cisplatin; time from cisplatin to read-out not stated
Treatment: cisplatin at a dose killing half of control-siRNA cells; exact dose and duration not given
Detection: 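Cisplatin cell death as a shift from the 50% death seen with control siRNA; siRNAs toxic or growth-blocking alone scored 0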
Reading the numbers: two-siRNA summed score (-2 to +2): higher = both siRNAs protect from cisplatin killing; -2 means both sensitise
Call rule: 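Each siRNA scores 0 if harmful alone by LDH or WST-1, otherwise +1 if it reduces and -1 if it increases cisplatin killing; a gene is active when both siRNAs agree (sum +2 or -2)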
Meaning of the calls: active = both siRNAs shift cisplatin killing the same way; inactive = no consistent shift, or siRNA harmful alone
Shown is a random part of about 23,000 reagents tested. 455 of them (2%) count as active. 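Active includes both protection and sensitisation; some change values fall well beyond the stated -50 to +50 range.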 A number with no mark means an inactive call. Not all columns of the deposit are shown. The record does not give: the amount of reagent.

| target | two-siRNA summed score (-2 to +2) |
| --- | --- |
| VMA12 | -1 |
| YWHAEP5 | 0 |
| ZNF490 | 0 |
| ZBTB44 | 0 |
| LOC400792 | 1 |
| PRUNE1 | 0 |
| POLR2F | 0 |
| MAEA | 0 |
| SLC17A8 | 0 |
| ZFAND4 | 0 |
| LOC389419 | 0 |
| SOX10 | 0 |
| ALS2CL | 0 |
| SAP18 | -1 |
| LOC390615 | 0 |
| PRPS2 | 1 |
| LINC01565 | 0 |
| IFNA5 | 1 |
| SBF2 | 0 |
| KRT35 | 1 |
| LOC441655 | 1 |
| APBA2 | 1 |
| LOC441432 | 1 |
| LOC440367 | 0 |
| LOC401951 | 0 |
| H3C14 | 0 |
| NOSTRIN | 0 |
| PROM1 | 0 |
| LIG1 | -1 |
| POLR2E | -1 |
| ALAS1 | 1 |
| RHPN1 | 0 |
| LINC01124 | 0 |
| MAP1B | 0 |
| LOC390906 | 1 |
| TIAM2 | 0 |
| SAMD4A | 1 |
| FBXO16 | 0 |
| LOC400749 | 1 |
| KRTAP2-4 | 0 |
| PRSS42P | 0 |
| PRR27 | 0 |
| LOC390828 | 0 |
| PNLIPRP2 | 0 |
| THOC5 | 0 |
| LOC387816 | 1 |
| RDH11 | 0 |
| LOC400764 | 0 |
| LOC137107 | 0 |
| MCEMP1 | 0 |
| LINC00661 | 0 |
| ATP12A | 1 |
| TBC1D14 | 0 |
| PHF20L1 | 0 |
| NRBF2 | 0 |
| TOR1B | 1 |
| UTP4 | 0 |

Individual results from the list.
SLC17A8, two-siRNA summed score (-2 to +2) = 0
LOC387816, two-siRNA summed score (-2 to +2) = 1
Under “two-siRNA summed score (-2 to +2)”, SAMD4A is entered as 1
Value of LOC400764 under “two-siRNA summed score (-2 to +2)”: 0
Result for MAP1B in “two-siRNA summed score (-2 to +2)”: 0
Under “two-siRNA summed score (-2 to +2)”, LOC389419 is entered as 0
